{"source": "paper PMC9494680", "about": "(ACS Omega, 2022)", "key": {"HEL cells": {"system": "HEL cells", "experiment": "Cytotoxicity, PrestoBlue assay, HEL cells", "type": "cell-based", "conditions": "Homo sapiens, 72 h, read-out: IC50 toward HEL cells"}, "TF1 cells": {"system": "TF1 cells", "experiment": "Cytotoxicity, PrestoBlue assay, TF1 cells", "type": "cell-based", "conditions": "Homo sapiens, TF-1, 72 h, read-out: IC50 toward TF1 cells"}}}
{"smiles": "C[C@@H]1CCN(C(=O)CC#N)C[C@@H]1N(C)c1ncnc2[nH]ccc12", "note": "[tofacitinib]", "values": [{"measurement": "IC50", "setting": "HEL cells", "result": "23.3 ± 1.55", "unit": "µM"}, {"measurement": "IC50", "setting": "TF1 cells", "result": "25.1 ± 0.68", "unit": "µM"}]}
